The record followed here is patent publication US12797409, “Heparan sulfate mimetics to improve glucose clearance” (THE REGENTS OF THE UNIVERSITY OF CALIFORNIA).

Results from cells or extracts need not show a direct contact. No signal at the amounts used counts as a negative. Tags and fusion partners may be left off the protein sequences shown.

For this data set, the target named is T1, Alpl (alkaline phosphatase) (Mus musculus) (UniProt P09242).
T1 sequence (looked up, limits assumed): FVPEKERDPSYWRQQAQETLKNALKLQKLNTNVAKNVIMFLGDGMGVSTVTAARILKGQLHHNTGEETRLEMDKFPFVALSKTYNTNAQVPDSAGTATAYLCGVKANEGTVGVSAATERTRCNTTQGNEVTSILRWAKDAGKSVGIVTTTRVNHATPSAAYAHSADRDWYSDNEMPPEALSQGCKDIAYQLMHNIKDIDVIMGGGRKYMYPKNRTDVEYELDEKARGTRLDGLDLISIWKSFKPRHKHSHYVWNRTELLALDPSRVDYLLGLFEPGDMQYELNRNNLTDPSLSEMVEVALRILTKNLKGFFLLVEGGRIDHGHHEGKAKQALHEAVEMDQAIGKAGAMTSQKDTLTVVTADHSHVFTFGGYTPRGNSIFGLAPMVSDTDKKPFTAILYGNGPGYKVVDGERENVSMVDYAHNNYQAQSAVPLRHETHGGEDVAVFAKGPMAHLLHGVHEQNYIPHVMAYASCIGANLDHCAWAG
The experiment in a line: flow cytometry. The following applies: 5'-biotin, bound to streptavidin carrying biotinylated heparin (1:1:1); no significant cell surface binding to Ext1-/- mouse ES cells, 0-200 nM, 40 min in suspension; protein on the cell surface; protein details: endogenous on Ext1-/- mouse embryonic stem cells; label: AF488 (on streptavidin); single-stranded DNA; variant of Aptamer 19S. For orientation: Flow cytometry measures light scatter and fluorescence of single cells or particles in a stream.

As for “AGGTCAGATGGTGGATTCGAAGTGGGAGATGCGAGTGTACCTATGCGTG [Hep-SA-Scr (heparin-streptavidin-scrambled aptamer chimera)]”, the binding result is reported as “no binding”.
